Measurements: the supplement of paper PMC9254222
Most of the highest values are listed elsewhere, so they are rarer here than in the full data.

Test system: HEK293T (UBE3A T485A transfected, BAR Wnt reporter)
Assay: Renilla luciferase signal (cell health) relative to plate median (fold (linear ratio)); higher = higher Renilla signal
Details: 24 h
In short: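 Each value averages four biological replicates in HEK293T cells grown at 4500 cells/well in DMEM with 10% FBS at 37°C and 5% CO2. The cells were transfected with a BAR firefly luciferase Wnt reporter, TK-Renilla and an expression plasmid, then four hours later robotically treated with the chemicals at 0.01–100 uM for 24 h. Dual-Glo luciferase signals were median-centred per plate, with the firefly/Renilla ratio reported as Wnt activity and raw Renilla as cell health.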

SMILES	Renilla luciferase signal (concentration: 0.1 uM)	Renilla luciferase signal (concentration: 1 uM)	Renilla luciferase signal (concentration: 10 uM)	Renilla luciferase signal (concentration: 100 uM)
CCCCCCCC1CCC(=O)O1 (stereo not drawn) [5-Heptyldihydro-2(3H)-furanone]	1.08	1.01	1.05	1.02
CS(=O)(=O)c1ccc([C@@H](CC2CCCC2)C(=O)Nc2cnccn2)cc1Cl	1.04	0.989	1.01	0.195
